The whole screen tested about 340,000 compounds, of which about 6,200 (1.8%) were called active. This list was built around the results that the source calls inconclusive (neither active nor inactive); the mix of calls is not that of the screen. The call rests on the fitted dose curve; in most records, active means well fitted activation curve with a large enough effect; inconclusive means small, poorly fitted or top-dose-only effect; inactive means no such curve, though single readings can be large or run the other way. Potencies beside an inconclusive call are fits to weak or partial responses and may not hold up.
experiment: A quantitative high throughput screen for small molecules that induce DNA re-replication in SW480 colon adenocarcinoma cells.; further: nearly all actives have a fitted effect of over 55% in size; on re-replication activation: % of control where 0% means no effect; conditions: Hoechst DNA content imaging, 48 h; re-replication activation: at 46.1 µM (top of the series) unless noted
Summary of the method: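 Readout is total intensity of Hoechst-stained nuclei, excited at 405 nm and collected at 500-530 nm. Compound treatment lasted 48 hr at 37 C in 5% CO2 before staining.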
Potency means the concentration at half of the fitted maximal effect.

SMILES	Potency	re-replication activation
COc1cc(NC(=O)c2cccs2)c(OC)cc1NC(=O)CCC(=O)Nc1ccc2ncccc2c1	inconclusive: 20.6 µM [activator, single point]	–
CC(C)C[C@H](N)c1cn([C@@H](CCCCN)C(=O)N2CCNCC2)nn1	inconclusive: 20.6 µM [activator, partial curve, poor fit]	–
CSCCC(NS(=O)(=O)c1ccc(C)cc1)C(=O)N1CCN(C(c2ccccc2)c2ccccc2)CC1 (stereo unspecified)	inconclusive: 20.6 µM [activator, single point]	–
CC(/C=N/NC(=O)c1cc(-c2ccc3ccccc3c2)n[nH]1)=C\c1ccco1	inconclusive: 20.6 µM [activator, single point]	–
COc1ccccc1-c1cn[nH]c1-c1ccc(OCc2ccccc2)cc1O	inconclusive: 25.9 µM [activator, single point]	–
CS(=O)(=O)N(Cc1ccc(C(=O)Nc2ccccc2Sc2ccccc2)cc1)c1ccccc1	inconclusive: 29.1 µM [activator, single point]	–
Cc1cccc(Nc2nc(N)nc(CN3CCN(c4ccccc4F)CC3)n2)c1	inconclusive: 16.4 µM [activator, single point]	–
O=C(NCC1CCCN(C(=O)c2cccc(C(F)(F)F)c2)C1)c1ccc(F)cc1 (stereo unspecified)	inconclusive: 0.411 µM [activator, full curve, poor fit]	–
CCn1c(=O)c(CCC(=O)N2CCN(c3ccccn3)CC2)c(C)c2c(C)nn(-c3ccccc3)c21	inactive	–
CCCN1C(=O)c2ccccc2NC1c1ccc(OC)cc1OC (stereo unspecified)	inconclusive: 2.91 µM [activator, single point]	–
C(=N\Nc1nc2ccccc2[nH]1)/c1cccc2nccnc12	inactive	–
CCOC(=O)N1CCN(C(=O)CSc2nnc(-c3cc(OC)ccc3OC)o2)CC1	inconclusive: 29.1 µM [activator, single point]	–
O=c1c2ccccc2nc(/C=C/c2ccc(Cl)cc2)n1CCO	inconclusive: 5.17 µM [activator, full curve, poor fit]	–
COC(=O)c1sccc1NC(=O)CN(C)NS(=O)(=O)c1ccc(F)cc1	active: 13 µM	–
O=[N+]([O-])c1cccc(-c2ccc3nnc(SCc4cccnc4)n3n2)c1	inactive	–
Cc1ccc2[nH]cc(C(=O)CCl)c2c1	inconclusive: 10.3 µM [activator, partial curve]	–
CCC(=O)Nc1ccc(C(=O)CSc2nc3ccc(C)cc3[nH]2)cc1	inconclusive: 0.366 µM [activator, full curve, poor fit]	–
CNC(=S)NNC(=O)c1ccccc1Cl	inactive	–
COc1ccc(CCN(Cc2cccs2)S(=O)(=O)c2ccc(C(=O)O)cc2)cc1OC	inconclusive: 0.164 µM [activator, full curve, poor fit]	–
CN(C)CCC(=O)c1ccc2c(c1)OCO2	inconclusive: 9.2 µM [activator, single point]	–
COc1ccc(C(=O)NNC(=O)CCn2nnc(-c3ccc(Cl)cc3)n2)cc1OC	inconclusive: 4.11 µM [activator, partial curve, poor fit]	–
CN1CCN(C(=O)Nc2cccc3ccccc23)CC1	inconclusive: 29.1 µM [activator, partial curve, poor fit]	–

SMILES	Potency	re-replication activation
CCCCNS(=O)(=O)c1ccc(NC(=O)C(Sc2ccccc2)c2ccccc2)cc1 (stereo unspecified)	inconclusive: 25.9 µM [activator, single point]	–
COC(=O)c1ccc(NC(=O)CCc2nnc3ccc(NCc4ccco4)nn23)cc1	inconclusive: 29.1 µM [activator, single point]	–
C=C(C)Cn1c(CCNC(=O)C(C)C)nc2ccccc21	inconclusive: 0.891 µM [activator, partial curve, poor fit]	–
CC(C)NC(=S)NNc1ncnc2sc3c(c12)CC(C)(C)OC3	inactive	–
O=C(c1cccc(C(F)(F)F)c1)N1CCC(O)(CS(=O)(=O)Cc2ccccc2)CC1	inactive	–
CC1(c2ccccc2)CC(C)(C)N(C(=O)CSc2nnc(N)s2)c2ccccc21 (stereo unspecified)	inconclusive: 29.1 µM [activator, partial curve, poor fit]	–
Cc1ccc(C2(C)NC(=O)N(CC(=O)Nc3cc(S(=O)(=O)N(C)C)ccc3C)C2=O)cc1 (stereo unspecified)	inconclusive: 29.1 µM [activator, single point]	–
COc1ccc(/C=N/NC(=O)c2ccccc2O)cc1CN1CCOCC1	inconclusive: 29.1 µM [activator, single point]	–
S=C(Nc1ccccc1)Nc1nc2ccccc2n1CCOc1ccc(Cl)cc1	inconclusive: 29.1 µM [activator, single point]	–
N=C1C(c2ccc(Br)cc2)=C(O)C2CCc3ccccc3N12 (stereo unspecified)	inconclusive: 18.4 µM [activator, single point]	–
CN1OC(Cn2cc(C#N)c(=O)n(C)c2=O)CC1c1ccccc1 (stereo unspecified)	inconclusive: 29.1 µM [activator, single point]	–
CC(C(=O)O)n1nc(-c2ccccc2)c2ccccc21 (stereo unspecified)	inconclusive: 20.6 µM [activator, single point]	–
O=C(NCCCn1ccnc1)c1nc(Cn2cc(Br)cn2)no1	inconclusive: 32.6 µM [activator, single point]	–
COc1ccc(CNCCC(c2ccc(OC)cc2)c2ccccc2OC)cc1 (stereo unspecified)	inconclusive: 20.6 µM [activator, single point]	–
O=C(O)c1ccccc1SCc1ccc2c(c1)OCO2	inactive	–
COc1ccc(N(CC(=O)NCc2ccccc2OC)S(=O)(=O)c2ccc(C)cc2)cc1Cl	inactive	–
COc1ccc(C(=O)NCCOC(C)C)cc1OC1CCN(C(C)=O)CC1	inactive	–
NC(=O)c1ccc(NC(=O)CSc2nnc(-c3cccnc3)n2Cc2ccco2)cc1	inconclusive: 29.1 µM [activator, partial curve, poor fit]	–
CCOC(=O)c1ccc(S(=O)(=O)N2CCC(C(=O)OCC)CC2)cc1	inactive	–
CSc1ncccc1C(=O)N1CCN(C(=O)c2ccccc2)CC1	inactive	–
Cc1ccc(NC(=O)C2CCCN(S(=O)(=O)c3c(C)noc3C)C2)cc1F (stereo unspecified)	inconclusive: 18.4 µM [activator, partial curve, poor fit]	–
COC(=O)C1=CN(c2ccc(OC)cc2)C=C(C(=O)OC)C1c1cc(OC)c(OC)cc1OC	inconclusive: 23.1 µM [activator, single point]	–

Rewritten bar-delimited: 4 of the compounds above
SMILES | Potency | re-replication activation
CCOC(=O)N1CCN(C(=O)CSc2nnc(-c3cc(OC)ccc3OC)o2)CC1 | inconclusive: 29.1 µM [activator, single point] | –
O=c1c2ccccc2nc(/C=C/c2ccc(Cl)cc2)n1CCO | inconclusive: 5.17 µM [activator, full curve, poor fit] | –
COC(=O)c1sccc1NC(=O)CN(C)NS(=O)(=O)c1ccc(F)cc1 | active: 13 µM | –
O=[N+]([O-])c1cccc(-c2ccc3nnc(SCc4cccnc4)n3n2)c1 | inactive | –

Next part.

SMILES	Potency	re-replication activation
CCCCn1c(-c2cccc(Br)c2)nc2cc3[nH]c(=O)c(C(C)C)nc3cc21	inconclusive: 16.4 µM [activator, single point]	–
O=C(N/N=C/c1cc([N+](=O)[O-])ccc1O)c1ccncc1	inconclusive: 18.4 µM [activator, single point]	–
CCN(Cc1ccc(OC)c(F)c1)C(=O)CCl	active: 16.4 µM	–
COc1ccccc1C(=O)Nc1ccc(S(=O)(=O)N2CCc3ccccc32)cc1	inconclusive: 32.6 µM [activator, partial curve, poor fit]	–
CC1CCCN(C(=O)c2cc(-c3ccco3)nc3ccccc23)C1 (stereo unspecified)	–	inconclusive: 40.3% [activator]
Cc1ccc(C)c(S(=O)(=O)N2CCN(C(=O)CNC(=O)c3ccc4ccccc4c3)CC2)c1	inconclusive: 25.9 µM [activator, single point]	–
CCOc1cccc(CNc2ccc(O)cc2)c1OCc1ccccc1Cl	inconclusive: 23.1 µM [activator, single point]	–
N#C/C(=C\c1c(Oc2ccccc2F)nc2ccccn2c1=O)C(=O)NC1CCS(=O)(=O)C1 (stereo unspecified)	inconclusive: 13 µM [activator, partial curve, poor fit]	–
CC(=O)Nc1ccc(NC(=O)CCc2nc3sc4c(c3c(=O)[nH]2)CCCC4)cc1	inactive	–
CCCc1nc2ccccc2c(=O)n1/N=C/c1c(C)[nH]n(-c2ccc(C)cc2)c1=O	inconclusive: 18.4 µM [activator, single point]	–
CN(Cc1nc2ccccc2n1C)C(=O)c1ccco1	inactive	–
CC(NC(=O)c1cc(-c2ccc(Br)cc2)on1)c1ccccc1 (stereo unspecified)	inconclusive: 16.4 µM [activator, single point]	–
N=c1sccn1CC(=O)N1N=C(c2ccc(Cl)cc2)CC1c1ccco1 (stereo unspecified)	inactive	–
COc1ccc2[nH]cc(C(=O)CNc3nc(C)cs3)c2c1	inconclusive: 29.1 µM [activator, single point]	–
CC(C)c1ccc2c(c1)C1(NN=C(c3ccccc3)S1)C(=O)N2 (stereo unspecified)	active: 8.2 µM	–
CCCCCN(C(=O)CCC(=O)OCc1cccc(Br)c1)c1c(N)n(CCCC)c(=O)[nH]c1=O	inconclusive: 18.4 µM [activator, partial curve, poor fit]	–
CCn1c(SCC(=O)c2ccc(Cl)cc2)nnc1C(C)C	inconclusive: 17.8 µM [activator, partial curve, poor fit]	–
NC(=O)c1ccc(SCC(=O)NC2CCCCC2)c([N+](=O)[O-])c1	–	inactive: 4.31% [at 1.84 µM]
CCN=C1S/C(=C\c2ccc(-c3cccc(C(=O)O)c3)o2)C(=O)N1CC	active: 5.8 µM	–
C[C@@H]1CC=C[C@H]2[C@H]1C(=O)N(Cc1ccccc1)[C@H]2c1cccc([N+](=O)[O-])c1	inactive	–
O=C(Nc1ccc(Cl)c(Cl)c1)Nc1ccon1	active: 10.3 µM	–
CCN1CCN(c2ccc(S(=O)(=O)N3CCOCC3)cc2NC(=O)/C=C/c2ccc([N+](=O)[O-])cc2)CC1	inconclusive: 20.6 µM [activator, single point]	–

From PubChem BioAssay AID624297 (National Center for Advancing Translational Sciences (NCATS), 2012)
